Our source for the binding values is publication PMC7930485.

Chains of the proteins cited; added tags and fusions are not shown. Residues count along the entry.
UniProt Q08722, residues 19-323: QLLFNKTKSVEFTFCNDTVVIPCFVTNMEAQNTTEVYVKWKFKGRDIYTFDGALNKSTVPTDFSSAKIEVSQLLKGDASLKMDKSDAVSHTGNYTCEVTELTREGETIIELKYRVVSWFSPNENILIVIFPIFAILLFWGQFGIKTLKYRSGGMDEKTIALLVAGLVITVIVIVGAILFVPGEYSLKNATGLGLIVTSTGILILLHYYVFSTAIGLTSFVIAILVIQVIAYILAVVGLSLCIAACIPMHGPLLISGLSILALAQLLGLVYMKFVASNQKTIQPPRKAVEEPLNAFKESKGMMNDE
UniProt P07996, residues 19-1170: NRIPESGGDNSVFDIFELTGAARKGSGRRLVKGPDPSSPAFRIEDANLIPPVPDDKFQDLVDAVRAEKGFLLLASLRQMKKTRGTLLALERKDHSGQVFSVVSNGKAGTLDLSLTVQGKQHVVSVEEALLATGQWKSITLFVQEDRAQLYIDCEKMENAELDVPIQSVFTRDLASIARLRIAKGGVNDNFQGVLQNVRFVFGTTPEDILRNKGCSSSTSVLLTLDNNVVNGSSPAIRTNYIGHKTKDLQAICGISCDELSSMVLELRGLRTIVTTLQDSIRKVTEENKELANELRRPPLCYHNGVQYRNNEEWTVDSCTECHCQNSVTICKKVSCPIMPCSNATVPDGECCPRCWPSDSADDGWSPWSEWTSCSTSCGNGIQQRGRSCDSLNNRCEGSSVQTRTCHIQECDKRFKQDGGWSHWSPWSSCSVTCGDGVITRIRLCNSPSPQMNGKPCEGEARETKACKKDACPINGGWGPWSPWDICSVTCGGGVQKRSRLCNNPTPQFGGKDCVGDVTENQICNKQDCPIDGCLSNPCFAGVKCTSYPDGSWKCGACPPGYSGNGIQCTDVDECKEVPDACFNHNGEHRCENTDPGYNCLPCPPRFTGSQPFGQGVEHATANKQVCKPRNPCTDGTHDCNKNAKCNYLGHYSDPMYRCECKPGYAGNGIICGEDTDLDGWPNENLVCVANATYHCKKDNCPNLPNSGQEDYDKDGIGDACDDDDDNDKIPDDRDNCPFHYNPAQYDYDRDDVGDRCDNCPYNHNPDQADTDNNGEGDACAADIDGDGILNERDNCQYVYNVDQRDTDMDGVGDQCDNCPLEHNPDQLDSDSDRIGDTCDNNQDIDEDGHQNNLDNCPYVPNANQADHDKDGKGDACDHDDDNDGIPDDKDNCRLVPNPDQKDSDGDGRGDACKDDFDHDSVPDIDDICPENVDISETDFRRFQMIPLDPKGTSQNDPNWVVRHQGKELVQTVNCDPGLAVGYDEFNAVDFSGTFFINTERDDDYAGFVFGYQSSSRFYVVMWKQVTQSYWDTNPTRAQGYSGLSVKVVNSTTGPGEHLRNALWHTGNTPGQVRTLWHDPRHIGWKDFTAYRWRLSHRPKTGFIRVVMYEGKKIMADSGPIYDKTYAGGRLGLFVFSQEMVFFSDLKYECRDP

These are yes or no findings as the source states them, for the method shown. Binding seen in cells or lysates may run through a third protein. Here binding means that the protein was enriched with, or labelled near, the bait; the list need not be complete.

The test concerns the target CD47 (human (endogenous in HK-2)) (UniProt Q08722). The test can be described thus: affinity purification with mass spectrometry; anti-CD47 on Protein G Sepharose beads, lysate of HK-2 cells under OX-LDL stimulation, 4°C 12 h; precipitated proteins cut from SDS-PAGE gel, LC-MS/MS.

For “thrombospondin-1 (from UniProt P07996 19-1170) (ligand)”, the binding result was “binds”.

B1: γ-catenin (protein, UniProt P14923 1-745)
chain: MEVMNLMEQPIKVTEWQQTYTYDSGIHSGANTCVPSVSSKGIMEEDEACGRQYTLKKTTTYTQGVPPSQGDLEYQMSTTARAKRVREAMCPGVSGEDSSLLLATQVEGQATNLQRLAEPSQLLKSAIVHLINYQDDAELATRALPELTKLLNDEDPVVVTKAAMIVNQLSKKEASRRALMGSPQLVAAVVRTMQNTSDLDTARCTTSILHNLSHHREGLLAIFKSGGIPALVRMLSSPVESVLFYAITTLHNLLLYQEGAKMAVRLADGLQKMVPLLNKNNPKFLAITTDCLQLLAYGNQESKLIILANGGPQALVQIMRNYSYEKLLWTTSRVLKVLSVCPSNKPAIVEAGGMQALGKHLTSNSPRLVQNCLWTLRNLSDVATKQEGLESVLKILVNQLSVDDVNVLTCATGTLSNLTCNNSKNKTLVTQNSGVEALIHAILRAGDKDDITEPAVCALRHLTSRHPEAEMAQNSVRLNYGIPAIVKLLNQPNQWPLVKATIGLIRNLALCPANHAPLQEAAVIPRLVQLLVKAHQDAQRHVAAGTQQPYTDGVRMEEIVEGCTGALHILARDPMNRMEIFRLNTIPLFVQLLYSSVENIQRVAAGVLCELAQDKEAADAIDAEGASAPLMELLHSRNEGTATYAAAVLFRISEDKNPDYRKRVSVELTNSLFKHDPAAWEAAQSMIPINEPYGDDMDATYRPMYSSDVPLDPLEMHMDMDGDYPIDTYSDGLRPPYPTADHMLA
On to B1, for which the binding result is “binds”.
